# Test results taken from the supplement of paper PMC4749390.
# Structures can show the parent of a compound that is named as a salt. The list shows a part of the results. This data set is noisy: repeats of one test often differ as much as different tests do.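 JEG3 cells stably carry tetracycline-induced wild-type human LRH-1, a heavily sumoylated nuclear receptor. APOC3 and MUC1 are SUMO-sensitive transcripts, raised by SUMO-less LRH-1 or UBC9 knockdown, measured by RT-qPCR against TBP and DMSO controls. A robust Z-score above +2 or below -2 marked a primary hit before toxicity and TBP filtering.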
# Tested on: JEG3 expressing hLRH-1
# Assay: MUC1 transcript change (ddCt vs TBP and DMSO), Z-score over library; higher = higher MUC1 expression
# Settings: 10 µM; time (hr): 24
row,SMILES,MUC1 transcript change (Z-score)
1,O=C(O)Cc1ccccc1Nc1c(Cl)cccc1Cl [Diclofenac sodium],0.256
2,CCCSc1ccc2[nH]c(NC(=O)OC)nc2c1 [albendazole],-0.554
3,CO[C@H]1/C=C/O[C@@]2(C)Oc3c(C)c(O)c4c(O)c(c(/C=N/N5CCN(C)CC5)c(O)c4c3C2=O)NC(=O)/C(C)=C\C=C\[C@H](C)[C@H](O)[C@@H](C)[C@@H](O)[C@@H](C)[C@H](OC(C)=O)[C@@H]1C [rifampin],-0.434
4,CC(C)NCC(O)c1ccc(O)c(O)c1 (racemic) [(±)-Isoproterenol hydrochloride],0.61
5,Cc1ccc(NC(=O)c2ccc(CN3CCN(C)CC3)cc2)cc1Nc1nccc(-c2cccnc2)n1 [imatinib],-0.0843
6,Nc1ccn([C@H]2CC[C@@H](CO)O2)c(=O)n1 [zalcitabine],0.524
7,CCc1ccc(CCOc2ccc(CC3SC(=O)NC3=O)cc2)nc1 (stereo not drawn) [pioglitazone hydrochloride],-0.469
8,CC(C)(Oc1ccc(CCNC(=O)c2ccc(Cl)cc2)cc1)C(=O)O [bezafibrate],-0.746
9,CC1/C=C/C=C/C=C/C=C/C=C/C=C/C=C/C(O[C@@H]2O[C@H](C)[C@H](O)[C@@H](O)[C@@H]2N)CC(O)C(C(=O)O)C(O)CC(=O)CC(O)CC(O)CC(O)CC(=O)CCCC(=O)CC(=O)OC1C(C)CC(C)C(O)CC(=O)c1ccc(N)cc1 (stereo partly drawn) [candicidin],0.997
10,Nc1ccc(O)c(C(=O)O)c1 [mesalamine],1.23
11,NS(=O)(=O)c1cc2c(cc1Cl)NC(CSCc1ccccc1)=NS2(=O)=O [benzthiazide],0.37
12,Cc1cccc(C)c1NC(=O)c1ccccc1C(=O)O [ftaxilide],0.0131
13,Cc1ccc(Cl)c(Nc2ccccc2C(=O)O)c1Cl [sodium meclofenamate],-0.0507
14,Nc1ccc(S(=O)(=O)NC(=O)c2ccccc2)cc1 [sulfabenzamide],-0.147
15,CO[C@@]12[C@H](COC(N)=O)C3=C(C(=O)C(C)=C(N)C3=O)N1C[C@@H]1N[C@@H]12 [mitomycin c],-4.59
16,Oc1ccc(OCc2ccccc2)cc1 [monobenzone],0.00581
17,Nc1nc(N)c2nc(-c3ccccc3)c(N)nc2n1 [Triamterene],0.145
18,CNCCCC1c2ccccc2C=Cc2ccccc21 [Protriptyline hydrochloride],1.28
19,CCCCCCNC(=O)n1cc(F)c(=O)[nH]c1=O [carmofur],-0.0795
20,C[C@H]1CC2C3CCC4=CC(=O)C=C[C@]4(C)[C@@]3(F)[C@@H](O)C[C@]2(C)[C@@]1(O)C(=O)COP(=O)(O)O (stereo partly drawn) [betamethasone sodium phosphate],-1.03
21,Cc1cccc(N(C)C(=S)Oc2ccc3ccccc3c2)c1 [tolnaftate],-0.356
22,O=C1C2CC3CC1CC(O)(C3)C2 [idramantone],-0.461
23,Cc1cc2nc3ccc(N(C)C)cc3[s+]c2cc1N [tolonium chloride],0.212
24,CC1(C)O[C@@H]2C[C@H]3[C@@H]4CCC5=CC(=O)C=C[C@]5(C)[C@@]4(F)[C@@H](O)C[C@]3(C)[C@]2(C(=O)CO)O1 [triamcinolone acetonide],0.171
25,O=C(Nc1ccc([N+](=O)[O-])cc1Cl)c1cc(Cl)ccc1O [nicolsamide],1.06
26,CCCc1cc(O)nc(S)n1 [propylthiouracil],-0.0176

# Some of the entries above, set out differently.
row | SMILES | MUC1 transcript change (Z-score)
3 | CO[C@H]1/C=C/O[C@@]2(C)Oc3c(C)c(O)c4c(O)c(c(/C=N/N5CCN(C)CC5)c(O)c4c3C2=O)NC(=O)/C(C)=C\C=C\[C@H](C)[C@H](O)[C@@H](C)[C@@H](O)[C@@H](C)[C@H](OC(C)=O)[C@@H]1C [rifampin] | -0.434
11 | NS(=O)(=O)c1cc2c(cc1Cl)NC(CSCc1ccccc1)=NS2(=O)=O [benzthiazide] | 0.37
12 | Cc1cccc(C)c1NC(=O)c1ccccc1C(=O)O [ftaxilide] | 0.0131

# The list continues:

row,SMILES,MUC1 transcript change (Z-score)
1,Cc1oncc1C(=O)Nc1ccc(C(F)(F)F)cc1 [lefunamide],0.729
2,Cc1nnc(NS(=O)(=O)c2ccc(N)cc2)s1 [sulfamethizole],0.304
3,NC(=O)c1cc[n+](CC2=C(C(=O)O)N3C(=O)[C@@H](NC(=O)Cc4cccs4)[C@H]3SC2)cc1 [cefalonium],-0.71
4,CC(=O)OCC(=O)[C@@]1(O)CCC2C3CCC4=CC(=O)CC[C@]4(C)C3C(=O)C[C@@]21C (stereo partly drawn) [cortisone acetate],0.324
5,Clc1ccc(CO/N=C(\Cn2ccnc2)c2ccc(Cl)cc2Cl)c(Cl)c1 [oxiconazole nitrate],0.0443
6,FC(F)(Cl)C(F)(F)Cl [cryoflurane],0.279
7,N=C(N)c1ccc(OCCCCCOc2ccc(C(=N)N)cc2)cc1 [Pentamidine isethionate],-0.706
8,CCC(=O)c1c(O)cc(O)cc1O [flopropione],0.76
9,CCOC(=O)n1ccn(C)c1=S [carbimazole],0.143
10,NC1CCN(c2c(F)cc3c(=O)c(C(=O)O)cn(C4CC4)c3c2Cl)C1 (stereo not drawn) [clinafoxacin hydrochloride],0.373
11,CO/N=C(\C(=O)N[C@@H]1C(=O)N2C(C(=O)O)=C(COC(N)=O)CS[C@H]12)c1ccco1 [cefuroxime sodium],0.592
12,CN(C)CC/C=C1/c2ccccc2COc2ccccc21 [doxepin hydrochloride],-0.0122
13,CCCCCCCCCCCCCCCC(=O)O[C@@H]1[C@@H](O)[C@@H](O)[C@@H]([C@H](NC(=O)[C@@H]2C[C@@H](CCC)CN2C)[C@H](C)Cl)O[C@@H]1SC [clindamycin palmitate hydrochloride],0.619
14,Clc1ccc(COC(Cn2ccnc2)c2ccc(Cl)cc2Cl)c(Cl)c1 (stereo not drawn) [miconazole nitrate],0.364
15,N[C@@H](C(=O)N[C@@H]1C(=O)N2C(C(=O)O)=C(Cl)CS[C@H]12)c1ccccc1 [cefaclor],-0.0783
16,CC(C)Cn1cnc2c(N)nc3ccccc3c21 [imiquimod],-0.243
17,O=C(CNC(=O)c1ccc(Cl)cc1)NO [benurestat],-0.802
18,Nc1nc(O)ncc1F [flucytosine],1.06
19,CC(=O)OC1CC2CCC1(C)C2(C)C (stereo not drawn) [bornyl acetate],-0.0806
20,COc1ccccc1N1CCN(CC(O)COc2cccc3ccccc23)CC1 (stereo not drawn) [Naftopidil dihydrochloride],0.923
21,CC(NCCc1ccc(O)cc1)C(O)c1ccc(O)cc1 (stereo not drawn) [ritodrine hydrochloride],0.34
22,CN1CCC(=C2c3ccccc3CC(=O)c3sccc32)CC1 [ketotifen fumarate],0.793
23,Cc1nc2n(c(=O)c1CCN1CCC(c3noc4cc(F)ccc34)CC1)CCC[C@H]2O [paliperidone],-0.749
24,CC(C)NCC(O)c1ccc2ccccc2c1 (stereo not drawn) [pronetalol hydrochloride],-0.28
25,C/C(=C\C(=O)OCCCCCCCCC(=O)O)C[C@@H]1OC[C@H](C[C@@H]2O[C@H]2[C@@H](C)[C@H](C)O)[C@@H](O)[C@H]1O [mupirocin],0.708
26,Cc1ccc(O)cc1 [cresol],0.176

# Random excerpt: 3 entries already listed
row,SMILES,MUC1 transcript change (Z-score)
26,Cc1ccc(O)cc1 [cresol],0.176
8,CCC(=O)c1c(O)cc(O)cc1O [flopropione],0.76
12,CN(C)CC/C=C1/c2ccccc2COc2ccccc21 [doxepin hydrochloride],-0.0122

# (next part)

row,SMILES,MUC1 transcript change (Z-score)
1,CCOC(=O)C1=C[C@]2(CC)CCCN3CCc4c(n1c1ccccc41)[C@@H]32 [vinpocetine],0.641
2,CCCN(CCC)S(=O)(=O)c1ccc(C(=O)O)cc1 [probenecid],0.274
3,NS(=O)(=O)c1ccc(C(=O)O)cc1 [carzenide],-0.297
4,C[C@H]1C[C@@H]2[C@H]([C@@H](O)C[C@@]3(C)[C@H]2CC[C@]3(O)C(=O)CO)[C@@]2(C)C=CC(=O)C=C12 [methylprednisolone],-0.93
5,CN(C(=O)C(Cl)Cl)c1ccc(OC(=O)c2ccco2)cc1 [diloxanide furoate],-0.422
6,CC(=O)OCC(=O)[C@@]1(O)[C@H](C)CC2C3CCC4=CC(=O)C=C[C@]4(C)[C@@]3(F)[C@@H](O)C[C@@]21C (stereo partly drawn) [dexamethasone acetate],-0.938
7,O=C1CN(/N=C/c2ccc([N+](=O)[O-])o2)C(=O)N1 [nitrofurantoin],-0.165
8,O=C(O)COCCN1CCN(C(c2ccccc2)c2ccc(Cl)cc2)CC1 (stereo not drawn) [cetirizine hydrochloride],0.744
9,Cc1c(-c2cnccn2)ssc1=S [oltipraz],0.254
10,CCC(=O)O[C@]1(C(=O)CCl)[C@@H](C)C[C@H]2[C@@H]3CCC4=CC(=O)C=C[C@]4(C)[C@@]3(F)[C@@H](O)C[C@@]21C [clobetasol propionate],-0.127
11,NNc1nncc2ccccc12 [hydralazine hydrochloride],-0.356
12,NCC(O)CC(=O)O (stereo not drawn) [aminohydroxybutyric acid],0.144
13,O=C(O)CSCC(=O)NC1CCSC1=O (stereo not drawn) [erdosteine],0.828
14,C1CNCCN1 [piperazine],-0.318
15,CCN(CC)CC#CCOC(=O)C(O)(c1ccccc1)C1CCCCC1 (stereo not drawn) [oxybutynin chloride],-0.297
16,C[C@@H]1O[C@@H](OC[C@H]2OC(Oc3c(-c4ccc(O)c(O)c4)oc4cc(O)cc(O)c4c3=O)[C@H](O)[C@@H](O)[C@@H]2O)[C@H](O)[C@H](O)[C@H]1O (stereo partly drawn) [rutin],0.016
17,Cc1cc(=O)n(-c2ccccc2)n1C [antipyrine],0.386
18,CC(C)c1ccc2oc3nc(N)c(C(=O)O)cc3c(=O)c2c1 [amlexanox],0.375
19,CCc1oc2ccccc2c1C(=O)c1cc(Br)c(O)c(Br)c1 [benzbromarone],0.861
20,Cc1nc2n(c(=O)c1CCN1CCC(c3noc4cc(F)ccc34)CC1)CCCC2 [Risperidone],-4.72
21,CCC(=O)NCC[C@@H]1CCc2ccc3c(c21)CCO3 [ramelteon],0.132
22,CC(=O)Oc1cccc2c1C(=O)c1c(OC(C)=O)cc(C(=O)O)cc1C2=O [diacerin],-0.551
23,Clc1cccc(Cl)c1NC1=NCCN1 [Clonidine hydrochloride],0.153
24,CC1=C(C)C(=O)C(C(CCCCCC(=O)O)c2ccccc2)=C(C)C1=O (stereo not drawn) [seratrodast],0.463
25,CN(C)CCOC(C)(c1ccccc1)c1ccccn1 (stereo not drawn) [doxylamine succinate],0.0536
26,CC(C)COCC(CN(Cc1ccccc1)c1ccccc1)N1CCCC1 (stereo not drawn) [Bepridil hydrochloride],0.0567
